In paper doi:10.1101/2021.01.28.428652 one finds binding data, which are given here for 1 molecule.

Protein sequences, listed by entry. Tags and fused reporters are not part of them. Lines headed by an entry give the natural chain unless they say otherwise; changes in a name come on top. Residues count along the entry.
UniProt Q8VZG8, residues 44-1045: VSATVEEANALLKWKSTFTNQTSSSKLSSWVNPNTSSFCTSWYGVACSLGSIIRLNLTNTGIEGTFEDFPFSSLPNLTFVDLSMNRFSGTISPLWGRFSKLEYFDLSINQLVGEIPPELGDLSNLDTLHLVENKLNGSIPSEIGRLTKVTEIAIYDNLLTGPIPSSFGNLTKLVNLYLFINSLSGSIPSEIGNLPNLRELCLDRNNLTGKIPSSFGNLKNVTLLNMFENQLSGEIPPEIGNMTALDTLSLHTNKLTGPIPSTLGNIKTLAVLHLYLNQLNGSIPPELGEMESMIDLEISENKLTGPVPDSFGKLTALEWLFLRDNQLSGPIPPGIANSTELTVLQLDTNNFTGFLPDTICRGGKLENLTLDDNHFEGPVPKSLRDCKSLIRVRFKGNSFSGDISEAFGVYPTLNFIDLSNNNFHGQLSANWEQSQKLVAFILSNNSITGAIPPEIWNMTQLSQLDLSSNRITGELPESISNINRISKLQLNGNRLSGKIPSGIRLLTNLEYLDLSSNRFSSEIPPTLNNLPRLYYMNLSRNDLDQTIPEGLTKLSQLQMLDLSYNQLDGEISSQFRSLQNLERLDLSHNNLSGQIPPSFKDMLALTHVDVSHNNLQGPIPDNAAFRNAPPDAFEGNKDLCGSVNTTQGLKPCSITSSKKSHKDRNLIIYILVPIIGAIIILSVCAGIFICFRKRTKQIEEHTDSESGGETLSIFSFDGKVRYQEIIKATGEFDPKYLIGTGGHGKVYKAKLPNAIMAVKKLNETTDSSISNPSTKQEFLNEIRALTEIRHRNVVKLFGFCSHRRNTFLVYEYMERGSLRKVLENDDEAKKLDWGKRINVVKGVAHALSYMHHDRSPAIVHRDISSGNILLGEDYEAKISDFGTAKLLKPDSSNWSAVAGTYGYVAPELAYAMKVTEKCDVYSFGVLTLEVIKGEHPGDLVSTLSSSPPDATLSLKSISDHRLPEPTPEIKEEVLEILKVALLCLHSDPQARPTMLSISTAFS

For this assay, the target named is MIK2-GFP (pMIK2::MIK2-GFP in the mik2-1 mutant) (Arabidopsis thaliana) (UniProt Q8VZG8). The assay can be described thus: co-IP.

Results are given in words; binding and its absence hold for the method and conditions named. In cells and extracts the contact can be indirect. Some results given as binding are weak or reduced against the parent protein; the word gives no strength.

B1: BAK1/SERK3, endogenous (BRI1-ASSOCIATED RECEPTOR KINASE 1 / SOMATIC EMBRYOGENESIS RECEPTOR KINASE 3) (receptor, UniProt Q94F62 26-615)
chain: NAEGDALSALKNSLADPNKVLQSWDATLVTPCTWFHVTCNSDNSVTRVDLGNANLSGQLVMQLGQLPNLQYLELYSNNITGTIPEQLGNLTELVSLDLYLNNLSGPIPSTLGRLKKLRFLRLNNNSLSGEIPRSLTAVLTLQVLDLSNNPLTGDIPVNGSFSLFTPISFANTKLTPLPASPPPPISPTPPSPAGSNRITGAIAGGVAAGAALLFAVPAIALAWWRRKKPQDHFFDVPAEEDPEVHLGQLKRFSLRELQVASDNFSNKNILGRGGFGKVYKGRLADGTLVAVKRLKEERTQGGELQFQTEVEMISMAVHRNLLRLRGFCMTPTERLLVYPYMANGSVASCLRERPESQPPLDWPKRQRIALGSARGLAYLHDHCDPKIIHRDVKAANILLDEEFEAVVGDFGLAKLMDYKDTHVTTAVRGTIGHIAPEYLSTGKSSEKTDVFGYGVMLLELITGQRAFDLARLANDDDVMLLDWVKGLLKEKKLEALVDVDLQGNYKDEEVEQLIQVALLCTQSSPMERPKMSEVVRMLEGDGLAERWEEWQKEEMFRQDFNYPTHHPAVSGWIIGDSTSQIENEYPSGPR
As for B1, the binding result was “binds weakly”.
